Measured values reported in publication PMC5308672.
Results are given in words; binding and its absence hold for the method and conditions named. In cells and extracts the contact can be indirect. Some results given as binding are weak or reduced against the parent protein; the word gives no strength. Each block holds one substance with its values, some of them ahead of it.

Sequences of proteins named here, by UniProt entry; tags and fusion partners are left off. Residues count along the entry.
UniProt Q00887, residues 35-426: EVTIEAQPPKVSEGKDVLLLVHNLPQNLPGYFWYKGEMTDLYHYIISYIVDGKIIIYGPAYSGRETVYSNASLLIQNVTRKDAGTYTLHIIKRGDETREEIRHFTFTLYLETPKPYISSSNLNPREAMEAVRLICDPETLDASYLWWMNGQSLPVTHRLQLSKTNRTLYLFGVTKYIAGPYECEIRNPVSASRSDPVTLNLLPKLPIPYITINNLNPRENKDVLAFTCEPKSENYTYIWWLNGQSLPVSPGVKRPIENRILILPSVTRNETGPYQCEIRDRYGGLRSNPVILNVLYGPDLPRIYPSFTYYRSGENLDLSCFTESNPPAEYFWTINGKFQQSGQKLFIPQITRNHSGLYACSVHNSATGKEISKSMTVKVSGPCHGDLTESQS
UniProt Q15796: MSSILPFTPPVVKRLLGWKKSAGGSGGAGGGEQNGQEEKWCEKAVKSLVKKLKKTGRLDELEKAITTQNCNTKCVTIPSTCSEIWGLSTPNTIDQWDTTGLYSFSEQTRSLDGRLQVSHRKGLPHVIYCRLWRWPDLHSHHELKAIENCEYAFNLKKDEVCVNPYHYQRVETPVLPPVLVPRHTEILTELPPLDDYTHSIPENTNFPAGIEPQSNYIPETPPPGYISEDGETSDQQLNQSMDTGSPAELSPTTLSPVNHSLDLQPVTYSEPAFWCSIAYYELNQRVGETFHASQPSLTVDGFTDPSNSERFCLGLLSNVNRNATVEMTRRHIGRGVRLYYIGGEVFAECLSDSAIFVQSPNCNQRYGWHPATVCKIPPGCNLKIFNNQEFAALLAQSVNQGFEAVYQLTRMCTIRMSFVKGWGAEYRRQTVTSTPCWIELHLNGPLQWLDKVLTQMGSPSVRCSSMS
UniProt P84022: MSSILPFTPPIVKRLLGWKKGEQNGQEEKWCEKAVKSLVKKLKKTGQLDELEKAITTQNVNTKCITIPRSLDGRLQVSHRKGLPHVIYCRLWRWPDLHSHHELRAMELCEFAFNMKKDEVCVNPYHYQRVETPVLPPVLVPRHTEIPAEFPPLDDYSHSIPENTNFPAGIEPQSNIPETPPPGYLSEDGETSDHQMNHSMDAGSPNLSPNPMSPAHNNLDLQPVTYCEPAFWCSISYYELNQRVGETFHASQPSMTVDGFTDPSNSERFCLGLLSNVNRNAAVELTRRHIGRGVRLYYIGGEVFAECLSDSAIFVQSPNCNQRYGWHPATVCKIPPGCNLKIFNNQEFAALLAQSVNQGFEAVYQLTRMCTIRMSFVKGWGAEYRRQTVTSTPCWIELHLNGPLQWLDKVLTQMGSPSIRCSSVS
UniProt Q13485: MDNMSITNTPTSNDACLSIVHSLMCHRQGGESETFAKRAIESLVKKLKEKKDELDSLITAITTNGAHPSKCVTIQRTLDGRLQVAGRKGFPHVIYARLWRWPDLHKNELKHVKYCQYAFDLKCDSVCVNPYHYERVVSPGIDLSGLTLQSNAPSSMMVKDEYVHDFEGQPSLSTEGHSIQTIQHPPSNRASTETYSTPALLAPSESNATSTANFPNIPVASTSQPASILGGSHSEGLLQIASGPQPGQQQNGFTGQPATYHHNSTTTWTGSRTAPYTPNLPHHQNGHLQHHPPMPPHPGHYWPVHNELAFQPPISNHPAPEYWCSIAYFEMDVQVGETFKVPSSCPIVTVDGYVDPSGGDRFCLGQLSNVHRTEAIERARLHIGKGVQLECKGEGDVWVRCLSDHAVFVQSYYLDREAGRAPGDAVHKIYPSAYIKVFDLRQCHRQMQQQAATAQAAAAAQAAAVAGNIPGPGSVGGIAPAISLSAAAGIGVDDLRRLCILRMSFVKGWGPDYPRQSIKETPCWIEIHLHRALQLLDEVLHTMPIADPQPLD

Columns and labels:
[1] = target: c-myc-pcDNA3.1-PSG9 (human) (UniProt Q00887); experiment: co-IP; HCT-116 cells co-transfected for 24 hours with c-myc-pcDNA3.1-PSG9 and Flag-SMAD2, Flag-SMAD3 or Flag-SMAD4; IP with anti-c-myc (blot Flag) or anti-Flag (blot c-myc); 2 ug antibody overnight at 4°C, Protein A/G agarose, washes in RIPA lysis buffer
[2] = target: Flag-SMAD2 (UniProt Q15796); experiment: as above
[3] = target: Flag-SMAD3 (UniProt P84022); experiment: as above
[4] = target: Flag-SMAD4 (UniProt Q13485); experiment: as above
[5] = target: SMAD4, endogenous (human (endogenous in SW-480, HT-29, HCT-116)) (UniProt Q13485); experiment: co-IP; endogenous proteins in lysates of SW-480, HT-29 and HCT-116 cells; IP with anti-SMAD4 (blot PSG9) or anti-PSG9 (blot SMAD4), mouse or rabbit IgG as negative control; 2 ug antibody overnight at 4°C, Protein A/G agarose, washes in RIPA lysis buffer

binding [1]: binds
Substance: Flag-SMAD3 (from UniProt P84022 1-425)

binding [1]: binds
Substance: Flag-SMAD2 (from UniProt Q15796 1-467)

binding [2]: binds | binding [3]: binds | binding [4]: binds
Substance: c-myc-pcDNA3.1-PSG9 (from UniProt Q00887 35-426)

binding [5]: binds
Substance: Pregnancy-specific glycoprotein 9 (PSG9), endogenous (from UniProt Q00887 35-426)

binding [1]: binds
Substance: Flag-SMAD4 (from UniProt Q13485 1-552)
